Data reported in article PMC13223278.
Results are given in words; binding and its absence hold for the method and conditions named. In cells and extracts the contact can be indirect. Some binding calls cover weakened binding; strength is not graded here.

Sequences of proteins named here, by UniProt entry; tags and fusion partners are left off. Residues count along the entry.
UniProt Q08334, residues 20-325: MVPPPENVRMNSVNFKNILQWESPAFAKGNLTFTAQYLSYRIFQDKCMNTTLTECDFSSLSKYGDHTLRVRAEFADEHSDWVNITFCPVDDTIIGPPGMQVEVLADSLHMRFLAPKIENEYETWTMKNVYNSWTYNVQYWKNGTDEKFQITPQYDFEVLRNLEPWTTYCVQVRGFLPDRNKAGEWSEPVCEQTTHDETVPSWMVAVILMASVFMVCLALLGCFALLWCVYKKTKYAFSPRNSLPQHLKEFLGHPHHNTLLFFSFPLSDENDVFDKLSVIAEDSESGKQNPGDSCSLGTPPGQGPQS
UniProt P40189, residues 23-918: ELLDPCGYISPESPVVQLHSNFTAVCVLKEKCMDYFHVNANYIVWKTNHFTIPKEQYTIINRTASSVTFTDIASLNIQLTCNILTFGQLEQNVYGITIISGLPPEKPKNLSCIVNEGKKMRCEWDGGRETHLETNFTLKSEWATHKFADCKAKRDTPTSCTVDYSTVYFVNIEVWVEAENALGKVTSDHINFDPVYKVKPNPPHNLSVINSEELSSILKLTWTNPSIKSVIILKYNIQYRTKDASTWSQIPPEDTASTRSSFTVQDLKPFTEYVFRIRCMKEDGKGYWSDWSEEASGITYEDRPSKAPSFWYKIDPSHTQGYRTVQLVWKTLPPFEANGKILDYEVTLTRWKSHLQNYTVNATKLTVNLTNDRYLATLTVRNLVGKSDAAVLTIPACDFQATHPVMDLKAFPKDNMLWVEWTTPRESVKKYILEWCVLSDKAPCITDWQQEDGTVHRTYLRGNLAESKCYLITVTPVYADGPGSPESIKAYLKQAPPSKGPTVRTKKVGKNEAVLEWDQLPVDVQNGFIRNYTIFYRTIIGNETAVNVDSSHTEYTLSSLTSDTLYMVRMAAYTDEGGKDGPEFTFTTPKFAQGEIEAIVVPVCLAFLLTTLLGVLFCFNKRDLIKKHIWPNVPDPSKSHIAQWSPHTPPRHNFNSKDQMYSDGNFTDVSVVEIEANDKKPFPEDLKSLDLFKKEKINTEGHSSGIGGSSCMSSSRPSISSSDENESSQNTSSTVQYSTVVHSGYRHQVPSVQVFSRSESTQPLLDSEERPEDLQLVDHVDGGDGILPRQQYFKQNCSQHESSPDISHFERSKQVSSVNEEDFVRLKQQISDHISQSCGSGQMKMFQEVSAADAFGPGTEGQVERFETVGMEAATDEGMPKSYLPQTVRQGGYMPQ

Columns and labels:
[1] = target: interleukin-10 receptor subunit beta (human (endogenous in OKF6/TERT-2)) (UniProt Q08334); assay: proximity ligation; OKF6/TERT-2 cells on fibronectin-treated coverslips, fixed with 2% paraformaldehyde; two of the antibodies (goat anti-IL22RA, mouse anti-IL10RB, rabbit anti-gp130, 5 ug/ml each) in combination overnight at 4 °C; Duolink In Situ Red; confocal microscopy, average number of complexes per cell
[2] = target: glycoprotein 130 (human (endogenous in OKF6/TERT-2)) (UniProt P40189); assay: as above
[3] = target: interleukin-10 receptor subunit beta (human (endogenous in OKF6/TERT-2)) (UniProt Q08334); assay: co-IP; OKF6/TERT-2 cells treated without or with 50 ng/ml human IL-22 for 3 h, cross-linked with 0.1 mM DSP for 30 min, lysed; 400 ug protein with 15 ug IL22RA1, IL10RB or gp130 antibody overnight at 4 °C; Protein A/G magnetic beads; SDS-PAGE
[4] = target: glycoprotein 130 (human (endogenous in OKF6/TERT-2)) (UniProt P40189); assay: as above

binding [1]: binds | binding [2]: binds | binding [3]: binds | binding [4]: binds
B1: interleukin-22 receptor subunit alpha-1 (receptor, UniProt Q8N6P7 16-574)
chain: HAPEDPSDLLQHVKFQSSNFENILTWDSGPEGTPDTVYSIEYKTYGERDWVAKKGCQRITRKSCNLTVETGNLTELYYARVTAVSAGGRSATKMTDRFSSLQHTTLKPPDVTCISKVRSIQMIVHPTPTPIRAGDGHRLTLEDIFHDLFYHLELQVNRTYQMHLGGKQREYEFFGLTPDTEFLGTIMICVPTWAKESAPYMCRVKTLPDRTWTYSFSGAFLFSMGFLVAVLCYLSYRYVTKPPAPPNSLNVQRVLTFQPLRFIQEHVLIPVFDLSGPSSLAQPVQYSQIRVSGPREPAGAPQRHSLSEITYLGQPDISILQPSNVPPPQILSPLSYAPNAAPEVGPPSYAPQVTPEAQFPFYAPQAISKVQPSSYAPQATPDSWPPSYGVCMEGSGKDSPTGTLSSPKHLRPKGQLQKEPPAGSCMLGGLSLQEVTSLAMEESQEAKSLHQPLGICTDRTSDPNVLHSGEEGTPQYLKGQLPLLSSVQIEGHPMSLPLQPPSRPCSPSDQGPSPWGLLESLVCPKDEAKSPAPETSDLEQPTELDSLFRGLALTVQWES
